± gives the uncertainty stated by the source. Many entries were measured with a wide error.
Test: self-splicing fitness, log relative to wild type (ln ratio); higher = more splicing; Tetrahymena group I intron in knt gene, E. coli kanamycin selection, DiMSum; sequences stand for … in CUCUCU…GGAGGGAAAAGUUAUCAGGCAUGCACCUGGUAGCUAGUCUUUAAACCAAUAGAUUGCAUCGGUUUAAAAGGCAAGACCGUCAAAUUGCGGGAAAGGGGUCAACAGCCGUUCAGUACCAAGUCUCAGGGGAAACUUUGAGAUGGCCUUGCAAAGGGUAUGGUAAUAAGCUGACGGACAUGGUCCUAACCACGCAGCCAAGUCCUAAGUCAACAGAUCUUCUGUUGAUAUGGAUGCAGUUCACAGACUAAAUGUCGGUCGGGGAAGAUGUAUUCUUCUCAUAAGAUAUAGUCGGACCUCUCCUUAAUGGGAGCUAGCGGAUGAAGUGAUGCAACACUGGAGCCGCUGGGAACUAAUUUGUAUGCGAAAGUAUAUUGAUUAGUUUUGGAGUACUCGUGGUCG
Procedure, shortened: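 A randomised library covering all eight P1ex-region intron nucleotides was built with the intron in the knt kanamycin-resistance gene on pET-22b(+) and held in E. coli BL21(DE3). Cells were grown overnight at 37°C or 30°C on LB agar, with or without 25 μg/mL kanamycin, plus 100 μg/mL carbenicillin, 50 μM IPTG and 0.2% rhamnose, and pooled colonies were amplicon-sequenced on an Illumina HiSeq 2500. DiMSum fitness is the error-weighted combination of wild-type-normalised replicate fold changes, kanamycin versus none.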

Sequence | self-splicing fitness (ln) (30 °C) | self-splicing fitness (ln) (37 °C)
UUGAAGCAAUAUUACGGGCC | -3.3 ± 0.64 | –
UAUUAGCAAUAUUACGAGAA | -1.93 ± 1.2 | –
UUUCAGCAAUAUUACGUUGA | -3.22 ± 0.6 | –
CGUUAGCAAUAUUACGUCCC | -4.04 ± 0.73 | –
GCAAAGCAAUAUUACGGAGA | – | -2.49 ± 0.76
AUUUAGCAAUAUUACGUUGC | – | -2.88 ± 1.1
UUAGAGCAAUAUUACGAGGU | -3.19 ± 0.53 | –
UCCGAGCAAUAUUACGACCA | -3.19 ± 1.2 | -2.22 ± 0.55
GUAGAGCAAUAUUACGUAGU | -4.26 ± 0.59 | –
UGUAAGCAAUAUUACGCUUU | -3.09 ± 0.26 | -2.72 ± 0.27
ACGGAGCAAUAUUACGGUAG | -3.95 ± 0.51 | –
AAGGAGCAAUAUUACGCUAC | – | -1.74 ± 0.65
GUCGAGCAAUAUUACGGAUA | 0.0717 ± 0.66 | –
CCUAAGCAAUAUUACGGACG | -1.15 ± 0.059 | -0.303 ± 0.08
AGGGAGCAAUAUUACGUAAU | -3.64 ± 0.53 | –
ACUUAGCAAUAUUACGCUCC | -1.44 ± 0.22 | 0.041 ± 0.19
GUCAAGCAAUAUUACGCCGG | -3.42 ± 0.76 | –
GGGAAGCAAUAUUACGUCCC | -1.32 ± 1.4 | 0.127 ± 0.88
AGAAAGCAAUAUUACGCCAC | -4.72 ± 0.72 | –
UAUGAGCAAUAUUACGAGCC | – | 0.0375 ± 0.59
UCCAAGCAAUAUUACGUCAC | -3.72 ± 0.39 | -3.28 ± 0.43
UGCGAGCAAUAUUACGGCAC | -4.01 ± 0.59 | -2.13 ± 0.57
GUUGAGCAAUAUUACGCCAC | -4.23 ± 0.73 | -1.6 ± 0.61
ACGUAGCAAUAUUACGGUGA | -2.3 ± 0.2 | -0.727 ± 0.15

Sequence | self-splicing fitness (ln) (30 °C) | self-splicing fitness (ln) (37 °C)
UAGGAGCAAUAUUACGGCUC | – | -2.72 ± 0.75
AUUGAGCAAUAUUACGAUAA | -4.21 ± 0.6 | –
CGUAAGCAAUAUUACGGUUC | -4.81 ± 0.51 | –
GUUGAGCAAUAUUACGAACG | -2.87 ± 0.62 | –
CUGGAGCAAUAUUACGGAAG | -3.48 ± 0.41 | -1.45 ± 0.28
CGGGAGCAAUAUUACGCAGU | -4.53 ± 0.59 | –
CUGGAGCAAUAUUACGAUUC | – | -2.39 ± 1.1
GUGGAGCAAUAUUACGAGGG | – | -3.17 ± 0.6
UCUAAGCAAUAUUACGGUCC | -3.29 ± 0.6 | –
CGAGAGCAAUAUUACGUAAA | -3.52 ± 0.62 | –
GCAGAGCAAUAUUACGCGGC | -3.8 ± 0.77 | -2.58 ± 0.64
UGGCAGCAAUAUUACGUCGA | -0.694 ± 0.04 | 0.401 ± 0.058
UAACAGCAAUAUUACGCCGC | -3.08 ± 0.64 | -3.25 ± 1
GCAUAGCAAUAUUACGGGUC | -3.17 ± 0.14 | -2.71 ± 0.17
GGUUAGCAAUAUUACGAUCC | – | -0.924 ± 0.66
AAUGAGCAAUAUUACGUAGC | -2.91 ± 0.2 | -2.05 ± 0.36
CCUCAGCAAUAUUACGCCAC | -3.18 ± 0.36 | -2.12 ± 0.41
CCGAAGCAAUAUUACGCGCU | -4.11 ± 0.61 | –
UGUGAGCAAUAUUACGCAGU | -5.62 ± 1 | –
GUGCAGCAAUAUUACGCGCA | – | -2.94 ± 0.74
CUUCAGCAAUAUUACGCCGA | -4.26 ± 0.72 | –
CUGGAGCAAUAUUACGAAGA | -3.31 ± 1 | -0.969 ± 0.77
UAGUAGCAAUAUUACGCUUC | -2.81 ± 1.1 | –
UACAAGCAAUAUUACGAGCC | – | -1.46 ± 0.69

Sequence | self-splicing fitness (ln) (30 °C) | self-splicing fitness (ln) (37 °C)
UGGGAGCAAUAUUACGCCCU | -4.36 ± 1 | -2.05 ± 0.51
GAGUAGCAAUAUUACGGGGU | -2.23 ± 0.61 | -2.5 ± 0.78
CCGAAGCAAUAUUACGGACA | -4.47 ± 0.51 | –
GCCGAGCAAUAUUACGGCUC | -3.39 ± 1 | –
UGGGAGCAAUAUUACGAUUG | -3.51 ± 0.53 | –
UCUUAGCAAUAUUACGAAUC | – | -2.48 ± 0.54
AUUGAGCAAUAUUACGAAUC | – | -4.88 ± 0.72
CAAUAGCAAUAUUACGUGGG | -3.7 ± 0.15 | -3.49 ± 0.21
CGCUAGCAAUAUUACGCUGC | – | -3.29 ± 0.52
UUCGAGCAAUAUUACGACCG | -3.13 ± 0.75 | -1.29 ± 1.2
CUCUAGCAAUAUUACGAGCC | -3.09 ± 0.54 | -4.16 ± 0.59
UGUCAGCAAUAUUACGGCUU | -0.428 ± 0.12 | -0.319 ± 0.17
CACAAGCAAUAUUACGGUUC | -4.1 ± 0.22 | -2.66 ± 0.19
CAGUAGCAAUAUUACGCAUC | -4.17 ± 1.1 | –
CGGGAGCAAUAUUACGCGGU | -3.48 ± 0.52 | –
GCGGAGCAAUAUUACGGCCA | -2.79 ± 0.87 | -1.5 ± 0.53
UAGUAGCAAUAUUACGUCAC | -4.36 ± 1 | -2.28 ± 0.51
AGUGAGCAAUAUUACGCAAA | -2.62 ± 1.1 | –
CUGCAGCAAUAUUACGACAA | -0.992 ± 0.54 | –
UUGAAGCAAUAUUACGAGCG | -0.107 ± 0.089 | 0.65 ± 0.14
UCGUAGCAAUAUUACGGCGC | -3.75 ± 1 | -2.43 ± 1.1
UCGGAGCAAUAUUACGGGGU | – | -3.21 ± 0.73
UCCUAGCAAUAUUACGAGCC | -2.67 ± 0.61 | -1.84 ± 0.56
UCGCAGCAAUAUUACGAGUC | -2.65 ± 0.5 | –

Complete entries from above.
GGUUAGCAAUAUUACGAUCC in the list: self-splicing fitness (ln) (37 °C) = -0.924 ± 0.66
GUGGAGCAAUAUUACGAGGG in the list: self-splicing fitness (ln) (37 °C) = -3.17 ± 0.6
CAGUAGCAAUAUUACGCAUC in the list: self-splicing fitness (ln) (30 °C) = -4.17 ± 1.1
UGGGAGCAAUAUUACGCCCU in the list: self-splicing fitness (ln) (30 °C) = -4.36 ± 1; self-splicing fitness (ln) (37 °C) = -2.05 ± 0.51

Carrying on.

Sequence | self-splicing fitness (ln) (30 °C) | self-splicing fitness (ln) (37 °C)
GUGAAGCAAUAUUACGACCU | -2.66 ± 1.1 | 0.753 ± 0.57
AAACAGCAAUAUUACGGUUG | -1.99 ± 0.061 | -0.629 ± 0.075
UGGUAGCAAUAUUACGAAAG | -3.06 ± 0.26 | -3.47 ± 0.73
CAUUAGCAAUAUUACGUAUC | -3.14 ± 0.31 | -2.26 ± 0.28
GAUGAGCAAUAUUACGACUG | – | -1.88 ± 0.8
UCUGAGCAAUAUUACGAGUU | – | -2.71 ± 0.55
GUGGAGCAAUAUUACGAGUC | -4.76 ± 0.72 | –
CGCGAGCAAUAUUACGAACC | -2.79 ± 0.68 | –
CUUUAGCAAUAUUACGUACA | – | -3.01 ± 0.53
CUUAAGCAAUAUUACGGAUA | – | -3.33 ± 1
CUAUAGCAAUAUUACGGCGA | -2.34 ± 0.85 | –
CCGCAGCAAUAUUACGUGGA | -3.51 ± 0.23 | -2.43 ± 0.22
CCGGAGCAAUAUUACGGGCC | -3.57 ± 0.74 | –
GCUGAGCAAUAUUACGACGA | 1.47 ± 1 | –
CUGAAGCAAUAUUACGGAUC | -4.12 ± 0.59 | -4.29 ± 0.72
CGAUAGCAAUAUUACGCUCG | -3.93 ± 0.53 | -2.03 ± 0.47
GUAUAGCAAUAUUACGCGGC | -2.01 ± 0.57 | -2 ± 0.52
AGGGAGCAAUAUUACGUUGA | -3.48 ± 0.53 | –
UGUGAGCAAUAUUACGUGAU | – | -3.73 ± 0.59
UUCUAGCAAUAUUACGCAUG | -3.42 ± 0.16 | -2.01 ± 0.18
ACCGAGCAAUAUUACGUUAG | -4.03 ± 0.15 | -2.65 ± 0.15
CGUUAGCAAUAUUACGCAAU | -4.34 ± 0.72 | -1.02 ± 0.23
CUAUAGCAAUAUUACGCCUU | -3.59 ± 0.62 | –
AACAAGCAAUAUUACGGUCC | -1.36 ± 0.063 | -0.282 ± 0.072

Sequence | self-splicing fitness (ln) (30 °C) | self-splicing fitness (ln) (37 °C)
UGGCAGCAAUAUUACGCCAU | – | -3.3 ± 1
UUUGAGCAAUAUUACGAAUA | – | -1.29 ± 1.2
CUUCAGCAAUAUUACGGCCC | – | -2.72 ± 0.63
CUAAAGCAAUAUUACGCCCA | – | -1.7 ± 0.58
GUAUAGCAAUAUUACGGGAA | -3.01 ± 0.56 | –
UUGUAGCAAUAUUACGGUCC | – | -0.83 ± 0.55
CGGAAGCAAUAUUACGCGGC | -3.5 ± 1 | -2.07 ± 1.1
CAUGAGCAAUAUUACGUCGA | – | -1.54 ± 0.69
UGGUAGCAAUAUUACGGACC | – | -1.79 ± 1.2
GUGGAGCAAUAUUACGCCGC | – | -0.624 ± 0.56
UUUGAGCAAUAUUACGCACC | – | -0.402 ± 0.57
ACCAAGCAAUAUUACGCGUA | -1.11 ± 0.075 | -0.487 ± 0.075
UCCAAGCAAUAUUACGACAA | -2.14 ± 0.13 | -1.47 ± 0.1
CGUGAGCAAUAUUACGCUGC | – | -3.03 ± 0.53
CAUUAGCAAUAUUACGUGUC | -4.73 ± 1 | –
GCUGAGCAAUAUUACGCCGU | -4.79 ± 0.51 | -0.103 ± 0.24
AAAGAGCAAUAUUACGGUUA | -2.49 ± 0.21 | -2.06 ± 0.18
AUCAAGCAAUAUUACGUUUC | -4.59 ± 0.72 | –
ACGCAGCAAUAUUACGAAUA | -4.2 ± 1 | –
CCGUAGCAAUAUUACGUUCC | – | -2.03 ± 0.53
GGAGAGCAAUAUUACGUUUG | -4.45 ± 0.73 | –
GGCGAGCAAUAUUACGCGCC | -3.11 ± 0.55 | –
UUCCAGCAAUAUUACGUUAG | -2.57 ± 0.17 | -0.904 ± 0.16
UAAGAGCAAUAUUACGAAAC | -3.72 ± 0.53 | –

Reference: the supplement of paper PMC7877785
